Measured values taken from the supplement of paper PMC4635364.
Structures can show the parent of a compound that is named as a salt. This is one part of the list. This data set is noisy: repeats of one test often differ as much as different tests do.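 ReNCell VM, a human fetal ventral-midbrain neural progenitor line, was differentiated without mitogens. Blinded raters scored images stained for doublecortin (early neurons) or tyrosine hydroxylase (dopaminergic neurons) against untreated wells (0 = no change). Scores were averaged across repeats and both raters, and compounds averaging 2 or more were selected as hits for retesting.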

Legend:
[1] = test system: ReNCell VM; assay: neuronal differentiation score (DCX+ cell fraction vs untreated, manual image score) (score (-3 to 3)); higher = more neuronal differentiation; settings: 2 uM, 2 weeks
[2] = test system: ReNCell VM; assay: dopaminergic neuron differentiation score (TH+ cell fraction vs untreated, manual image score) (score (0 to 3)); higher = more TH+ dopaminergic neuron differentiation; settings: 2 uM, 4 weeks, BDNF 10 ng/ml + GDNF 10 ng/ml

NC[C@@H]1O[C@H](C23CC4CC(CC(C4)C2)C3)Cc2c1ccc(O)c2O
inactive: neuronal differentiation score ([1]; library: LOPAC) 0 | neuronal differentiation score ([1]; library: Tocriscreen) 0 | dopaminergic neuron differentiation score ([2]; library: LOPAC) 0 | dopaminergic neuron differentiation score ([2]; library: Tocriscreen) 0

CC1CCN(CC[C@H]2CCCN2S(=O)(=O)c2cccc(O)c2)CC1
inactive: neuronal differentiation score ([1]; library: LOPAC) 0 | neuronal differentiation score ([1]; library: Tocriscreen) 0 | dopaminergic neuron differentiation score ([2]; library: LOPAC) 0 | dopaminergic neuron differentiation score ([2]; library: Tocriscreen) 0

O=[N+]([O-])c1cc2nc(O)c(O)nc2cc1[N+](=O)[O-]
inactive: neuronal differentiation score ([1]; library: LOPAC) 0 | neuronal differentiation score ([1]; library: Tocriscreen) 0 | dopaminergic neuron differentiation score ([2]; library: LOPAC) 0 | dopaminergic neuron differentiation score ([2]; library: Tocriscreen) 0

Oc1cc2c(cc1O)CN(C(=S)NCCc1ccc(Cl)cc1)CCC2 [Capsazepine]
inactive: neuronal differentiation score ([1]; library: LOPAC) 0 | neuronal differentiation score ([1]; library: Tocriscreen) 0 | dopaminergic neuron differentiation score ([2]; library: LOPAC) 0 | dopaminergic neuron differentiation score ([2]; library: Tocriscreen) 0

Cn1ccc2cc(NC(=O)Nc3cccnc3)ccc21
inactive: neuronal differentiation score ([1]; library: LOPAC) 0 | neuronal differentiation score ([1]; library: Tocriscreen) 1 | dopaminergic neuron differentiation score ([2]; library: LOPAC) 0 | dopaminergic neuron differentiation score ([2]; library: Tocriscreen) 0

NCCc1ccc(O)c(O)c1 [Dopamine hydrochloride]
inactive: neuronal differentiation score ([1]; library: LOPAC) -1 | neuronal differentiation score ([1]; library: Prestwick) 0 | dopaminergic neuron differentiation score ([2]; library: LOPAC) 0 | dopaminergic neuron differentiation score ([2]; library: Prestwick) 1

C[C@]12C[C@H](O)[C@H]3[C@@H](CCC4=CC(=O)CC[C@@]43C)[C@@H]1CC[C@@H]2C(=O)CO [Corticosterone]
active: dopaminergic neuron differentiation score ([2]; library: LOPAC) 3
inactive: neuronal differentiation score ([1]; library: LOPAC) 0 | neuronal differentiation score ([1]; library: Prestwick) 0 | dopaminergic neuron differentiation score ([2]; library: Prestwick) 0

CC(C(=O)O)c1ccc(-c2ccccc2)c(F)c1 (centres undefined) [Flurbiprofen]
inactive: neuronal differentiation score ([1]; library: Prestwick) 0 | neuronal differentiation score ([1]; library: Tocriscreen) 0 | dopaminergic neuron differentiation score ([2]; library: Prestwick) 0 | dopaminergic neuron differentiation score ([2]; library: Tocriscreen) 0

CCOc1cc(CC(=O)N[C@@H](CC(C)C)c2ccccc2N2CCCCC2)ccc1C(=O)O [Repaglinide]
inactive: neuronal differentiation score ([1]; library: Prestwick) 0 | neuronal differentiation score ([1]; library: Tocriscreen) 0 | dopaminergic neuron differentiation score ([2]; library: Prestwick) 0 | dopaminergic neuron differentiation score ([2]; library: Tocriscreen) 0

COc1c(C)c2c(c(O)c1C/C=C(\C)CCC(=O)O)C(=O)OC2 [Mycophenolic acid]
inactive: neuronal differentiation score ([1]; library: Phytochemical) 0 | neuronal differentiation score ([1]; library: Tocriscreen) 0 | dopaminergic neuron differentiation score ([2]; library: Phytochemical) 0 | dopaminergic neuron differentiation score ([2]; library: Tocriscreen) 0

CC(=O)c1ccc(S(=O)(=O)NC(=O)NC2CCCCC2)cc1 [Acetohexamide]
inactive: neuronal differentiation score ([1]; library: LOPAC) 0 | neuronal differentiation score ([1]; library: Prestwick) 0 | dopaminergic neuron differentiation score ([2]; library: LOPAC) 1 | dopaminergic neuron differentiation score ([2]; library: Prestwick) 0

C#CCN(C)CCCOc1ccc(Cl)cc1Cl [Clorgyline hydrochloride]
inactive: neuronal differentiation score ([1]; library: LOPAC) 0 | neuronal differentiation score ([1]; library: Prestwick) 0 | dopaminergic neuron differentiation score ([2]; library: LOPAC) 0 | dopaminergic neuron differentiation score ([2]; library: Prestwick) 0

COc1cccc2c1C(=O)c1c(O)c3c(c(O)c1C2=O)C[C@@](O)(C(C)=O)C[C@@H]3O[C@H]1C[C@H](N)[C@H](O)[C@H](C)O1 [Daunorubicin hydrochloride]
inactive: neuronal differentiation score ([1]; library: Prestwick) 0 | neuronal differentiation score ([1]; library: Tocriscreen) 0 | dopaminergic neuron differentiation score ([2]; library: Prestwick) 0 | dopaminergic neuron differentiation score ([2]; library: Tocriscreen) 0

O=C1NCC2(CCN(CCc3ccccc3)CC2)O1 [Fenspiride hydrochloride]
inactive: neuronal differentiation score ([1]; library: LOPAC) -1 | neuronal differentiation score ([1]; library: Prestwick) 0 | dopaminergic neuron differentiation score ([2]; library: LOPAC) 0 | dopaminergic neuron differentiation score ([2]; library: Prestwick) 0

N=C(N)NCCCCNC(=N)N [Arcaine sulfate]
inactive: neuronal differentiation score ([1]; library: LOPAC) 0 | neuronal differentiation score ([1]; library: Phytochemical) 0 | dopaminergic neuron differentiation score ([2]; library: LOPAC) 0 | dopaminergic neuron differentiation score ([2]; library: Phytochemical) 0

NS(=O)(=O)c1cc(C(=O)O)c(NCc2ccco2)cc1Cl [Furosemide]
inactive: neuronal differentiation score ([1]; library: LOPAC) 0 | neuronal differentiation score ([1]; library: Prestwick) 0 | dopaminergic neuron differentiation score ([2]; library: LOPAC) 0 | dopaminergic neuron differentiation score ([2]; library: Prestwick) 0

CCN1CCCC1CNC(=O)c1cc(S(=O)(=O)CC)c(N)cc1OC (centres undefined) [Amisulpride]
inactive: neuronal differentiation score ([1]; library: Prestwick) 0 | neuronal differentiation score ([1]; library: Tocriscreen) 0 | dopaminergic neuron differentiation score ([2]; library: Prestwick) 0 | dopaminergic neuron differentiation score ([2]; library: Tocriscreen) 0

Cc1ccc(S(=O)(=O)/C=C/C#N)cc1
inactive: neuronal differentiation score ([1]; library: LOPAC) 0 | neuronal differentiation score ([1]; library: Tocriscreen) 0 | dopaminergic neuron differentiation score ([2]; library: LOPAC) 0 | dopaminergic neuron differentiation score ([2]; library: Tocriscreen) 0

Fetched by compound from above, 2 records:
NS(=O)(=O)c1cc(C(=O)O)c(NCc2ccco2)cc1Cl [Furosemide]
inactive: neuronal differentiation score ([1]; library: LOPAC) 0 | neuronal differentiation score ([1]; library: Prestwick) 0 | dopaminergic neuron differentiation score ([2]; library: LOPAC) 0 | dopaminergic neuron differentiation score ([2]; library: Prestwick) 0

CCN1CCCC1CNC(=O)c1cc(S(=O)(=O)CC)c(N)cc1OC (centres undefined) [Amisulpride]
inactive: neuronal differentiation score ([1]; library: Prestwick) 0 | neuronal differentiation score ([1]; library: Tocriscreen) 0 | dopaminergic neuron differentiation score ([2]; library: Prestwick) 0 | dopaminergic neuron differentiation score ([2]; library: Tocriscreen) 0

Later entries:

COc1cc2c(cc1OC)-c1c/c(=N\c3c(C)cc(C)cc3C)n(C)c(=O)n1CC2 [Trequinsin hydrochloride]
inactive: neuronal differentiation score ([1]; library: LOPAC) 0 | neuronal differentiation score ([1]; library: Tocriscreen) 0 | dopaminergic neuron differentiation score ([2]; library: LOPAC) 0 | dopaminergic neuron differentiation score ([2]; library: Tocriscreen) 0

O=C1c2ccccc2S(=O)(=O)N1CCCCN1CCN(c2ncccn2)CC1 [Ipsapirone]
inactive: neuronal differentiation score ([1]; library: Prestwick) 0 | neuronal differentiation score ([1]; library: Tocriscreen) 0 | dopaminergic neuron differentiation score ([2]; library: Prestwick) 0 | dopaminergic neuron differentiation score ([2]; library: Tocriscreen) 0

CNCCCC1c2ccccc2C=Cc2ccccc21 [Protriptyline hydrochloride]
inactive: neuronal differentiation score ([1]; library: LOPAC) 1 | neuronal differentiation score ([1]; library: Prestwick) 0 | dopaminergic neuron differentiation score ([2]; library: LOPAC) 0 | dopaminergic neuron differentiation score ([2]; library: Prestwick) 0

CCOc1ccccc1OC(c1ccccc1)C1CNCCO1 (centres undefined) [Reboxetine mesylate]
inactive: neuronal differentiation score ([1]; library: Prestwick) 0 | neuronal differentiation score ([1]; library: Tocriscreen) 0 | dopaminergic neuron differentiation score ([2]; library: Prestwick) 0 | dopaminergic neuron differentiation score ([2]; library: Tocriscreen) 0

Cn1cnc([N+](=O)[O-])c1Sc1ncnc2[nH]cnc12 [Azathioprine]
inactive: neuronal differentiation score ([1]; library: LOPAC) 0 | neuronal differentiation score ([1]; library: Prestwick) 0 | dopaminergic neuron differentiation score ([2]; library: LOPAC) 0 | dopaminergic neuron differentiation score ([2]; library: Prestwick) 0

O=c1c(O)c(-c2cc(O)c(O)c(O)c2)oc2cc(O)cc(O)c12 [Myricetin]
inactive: neuronal differentiation score ([1]; library: LOPAC) 0 | neuronal differentiation score ([1]; library: Phytochemical) 0 | dopaminergic neuron differentiation score ([2]; library: LOPAC) 0 | dopaminergic neuron differentiation score ([2]; library: Phytochemical) 0

CN(C)CCCN1c2ccccc2Sc2ccc(Cl)cc21 [Chlorpromazine hydrochloride]
inactive: neuronal differentiation score ([1]; library: LOPAC) 0 | neuronal differentiation score ([1]; library: Prestwick) 0 | dopaminergic neuron differentiation score ([2]; library: LOPAC) 0 | dopaminergic neuron differentiation score ([2]; library: Prestwick) 0

CC(CN1c2ccccc2Sc2ccccc21)N(C)C (centres undefined) [Promethazine hydrochloride]
inactive: neuronal differentiation score ([1]; library: LOPAC) 0 | neuronal differentiation score ([1]; library: Prestwick) 0 | dopaminergic neuron differentiation score ([2]; library: LOPAC) 0 | dopaminergic neuron differentiation score ([2]; library: Prestwick) 0
